Assay results as given in PMC13245411.
No constants are given. Whether binding was seen depends on the method and setting. In cells and extracts the contact can be indirect. Some results given as binding are weak or reduced against the parent protein; the word gives no strength. For some of these results: Tags and fused reporters may be left off the sequences shown. Values belong to the binder of their own block, whether it stands above or below them.

Sequences of proteins named here, by UniProt entry; tags and fusion partners are left off. A change or cut given only in a name is not applied to a line headed by its entry. A line that says so, or that is headed by a name, gives the form on record, which may keep a tag or linker. Residues count along the entry.
UniProt Q5VXU9: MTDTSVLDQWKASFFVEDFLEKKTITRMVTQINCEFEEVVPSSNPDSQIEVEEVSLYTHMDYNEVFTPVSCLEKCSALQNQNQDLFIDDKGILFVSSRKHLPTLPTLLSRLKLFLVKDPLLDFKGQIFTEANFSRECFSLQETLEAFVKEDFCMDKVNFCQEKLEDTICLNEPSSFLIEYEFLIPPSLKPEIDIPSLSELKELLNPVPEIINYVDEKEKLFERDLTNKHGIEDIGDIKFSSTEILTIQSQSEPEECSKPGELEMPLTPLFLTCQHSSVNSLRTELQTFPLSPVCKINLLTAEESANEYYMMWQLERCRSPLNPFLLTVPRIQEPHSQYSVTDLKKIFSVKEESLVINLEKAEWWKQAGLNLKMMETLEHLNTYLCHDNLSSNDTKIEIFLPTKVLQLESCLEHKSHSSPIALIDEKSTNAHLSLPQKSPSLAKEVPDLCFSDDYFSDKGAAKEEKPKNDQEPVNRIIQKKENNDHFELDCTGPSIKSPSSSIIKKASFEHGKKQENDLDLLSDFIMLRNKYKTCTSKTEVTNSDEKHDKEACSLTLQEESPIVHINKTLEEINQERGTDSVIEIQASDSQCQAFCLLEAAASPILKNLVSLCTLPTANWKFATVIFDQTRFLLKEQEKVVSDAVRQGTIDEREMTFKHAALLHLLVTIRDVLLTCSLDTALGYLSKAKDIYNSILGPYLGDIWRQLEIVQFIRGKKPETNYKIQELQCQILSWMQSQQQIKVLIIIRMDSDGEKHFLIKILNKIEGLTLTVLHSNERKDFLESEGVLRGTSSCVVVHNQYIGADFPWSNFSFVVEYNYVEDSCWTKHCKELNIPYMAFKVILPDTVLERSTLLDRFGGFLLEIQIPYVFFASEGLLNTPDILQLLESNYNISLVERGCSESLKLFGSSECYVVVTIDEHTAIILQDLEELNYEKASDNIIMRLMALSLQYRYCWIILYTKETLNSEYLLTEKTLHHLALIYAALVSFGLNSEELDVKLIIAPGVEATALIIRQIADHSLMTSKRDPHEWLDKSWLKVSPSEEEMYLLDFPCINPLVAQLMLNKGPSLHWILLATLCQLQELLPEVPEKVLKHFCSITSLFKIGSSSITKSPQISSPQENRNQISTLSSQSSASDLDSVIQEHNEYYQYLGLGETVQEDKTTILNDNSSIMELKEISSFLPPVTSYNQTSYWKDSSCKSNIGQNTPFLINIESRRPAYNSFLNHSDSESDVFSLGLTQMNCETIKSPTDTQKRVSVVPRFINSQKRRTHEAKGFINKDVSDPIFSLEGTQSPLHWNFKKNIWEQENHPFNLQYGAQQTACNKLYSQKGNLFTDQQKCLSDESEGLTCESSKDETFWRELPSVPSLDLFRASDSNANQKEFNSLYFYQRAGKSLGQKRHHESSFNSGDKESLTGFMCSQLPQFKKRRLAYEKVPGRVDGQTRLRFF
human SHOC1 ΔF4 (aa1099-1444del): residues 1-1098 of Q5VXU9
human SHOC1 ΔF1 (aa1-288del): residues 289-1444 of Q5VXU9
human SHOC1 ΔF2 (aa289-576del) (Q5VXU9, form named): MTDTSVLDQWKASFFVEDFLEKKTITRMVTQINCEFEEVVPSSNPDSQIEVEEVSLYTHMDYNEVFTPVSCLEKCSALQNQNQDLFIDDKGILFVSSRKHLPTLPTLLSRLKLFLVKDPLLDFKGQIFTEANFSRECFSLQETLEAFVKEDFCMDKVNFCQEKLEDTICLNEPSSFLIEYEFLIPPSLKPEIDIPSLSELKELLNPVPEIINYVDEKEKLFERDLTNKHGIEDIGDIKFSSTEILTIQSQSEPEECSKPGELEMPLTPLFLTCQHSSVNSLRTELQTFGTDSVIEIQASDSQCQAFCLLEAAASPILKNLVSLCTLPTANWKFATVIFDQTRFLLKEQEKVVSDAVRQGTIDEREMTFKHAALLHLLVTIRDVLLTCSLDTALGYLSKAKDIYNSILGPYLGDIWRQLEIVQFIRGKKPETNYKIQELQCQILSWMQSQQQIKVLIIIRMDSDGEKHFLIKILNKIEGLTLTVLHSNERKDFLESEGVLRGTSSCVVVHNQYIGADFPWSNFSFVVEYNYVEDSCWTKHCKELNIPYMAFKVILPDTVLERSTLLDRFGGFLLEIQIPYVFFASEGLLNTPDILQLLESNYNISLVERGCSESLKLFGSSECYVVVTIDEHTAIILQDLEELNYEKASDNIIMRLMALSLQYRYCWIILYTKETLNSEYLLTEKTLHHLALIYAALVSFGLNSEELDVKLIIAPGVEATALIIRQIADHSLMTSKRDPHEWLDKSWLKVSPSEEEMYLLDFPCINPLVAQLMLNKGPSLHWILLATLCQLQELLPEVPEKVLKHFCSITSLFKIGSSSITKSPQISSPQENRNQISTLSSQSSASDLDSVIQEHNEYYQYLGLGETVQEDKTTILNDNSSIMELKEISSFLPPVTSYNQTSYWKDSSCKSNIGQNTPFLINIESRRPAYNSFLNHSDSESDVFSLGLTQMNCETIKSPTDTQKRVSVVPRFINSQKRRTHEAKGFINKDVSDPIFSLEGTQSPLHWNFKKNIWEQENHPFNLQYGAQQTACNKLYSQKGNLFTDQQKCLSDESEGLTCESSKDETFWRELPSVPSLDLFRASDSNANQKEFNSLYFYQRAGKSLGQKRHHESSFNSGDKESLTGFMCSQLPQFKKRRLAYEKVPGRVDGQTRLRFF
human SHOC1 ΔF3 (aa577-1098del) (Q5VXU9, form named): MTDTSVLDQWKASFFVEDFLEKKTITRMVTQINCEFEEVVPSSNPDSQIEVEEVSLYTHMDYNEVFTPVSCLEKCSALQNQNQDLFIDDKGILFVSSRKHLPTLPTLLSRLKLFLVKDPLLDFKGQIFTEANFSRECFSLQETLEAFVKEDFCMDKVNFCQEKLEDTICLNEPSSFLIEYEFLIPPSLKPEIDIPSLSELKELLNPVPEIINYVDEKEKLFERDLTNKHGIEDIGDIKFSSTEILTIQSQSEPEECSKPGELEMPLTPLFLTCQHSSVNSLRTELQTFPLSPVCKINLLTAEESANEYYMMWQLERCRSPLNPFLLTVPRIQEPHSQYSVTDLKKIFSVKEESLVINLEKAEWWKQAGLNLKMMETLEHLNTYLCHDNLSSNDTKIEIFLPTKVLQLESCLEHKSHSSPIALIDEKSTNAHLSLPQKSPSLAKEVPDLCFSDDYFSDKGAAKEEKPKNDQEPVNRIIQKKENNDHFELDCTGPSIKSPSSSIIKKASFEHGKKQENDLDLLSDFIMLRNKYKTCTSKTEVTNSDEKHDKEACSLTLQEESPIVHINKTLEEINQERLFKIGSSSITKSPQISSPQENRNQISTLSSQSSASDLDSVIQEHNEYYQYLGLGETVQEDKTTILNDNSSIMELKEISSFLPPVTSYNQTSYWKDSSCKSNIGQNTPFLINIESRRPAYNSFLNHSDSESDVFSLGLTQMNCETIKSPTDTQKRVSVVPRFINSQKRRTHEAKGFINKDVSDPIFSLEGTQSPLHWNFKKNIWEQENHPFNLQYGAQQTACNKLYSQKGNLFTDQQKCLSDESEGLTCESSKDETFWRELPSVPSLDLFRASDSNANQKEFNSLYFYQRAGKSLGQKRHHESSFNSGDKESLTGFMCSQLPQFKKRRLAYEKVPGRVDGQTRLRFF

Assays:
[1] = target: human SHOC1 ΔF2 (aa289-576del) (human) (UniProt Q5VXU9); assay: co-IP; tagged proteins co-expressed in pairs in HEK293T; immunoprecipitated from cell lysates by tag-specific antibodies, Western blot; IP lysis buffer 20 mM HEPES, 150 mM NaCl, 0.5% NP-40, 1 mM DTT, pH 7.3; 4°C (Fig. 1A, B; Supplementary Fig. S2C, D)
[2] = target: human SHOC1 ΔF3 (aa577-1098del) (human) (UniProt Q5VXU9); assay: as above
[3] = target: human SHOC1 ΔF1 (aa1-288del) (human) (UniProt Q5VXU9); assay: as above
[4] = target: human FLAG-tagged SHOC1 (human) (UniProt Q5VXU9); assay: as above
[5] = target: human SHOC1 ΔF4 (aa1099-1444del) (human) (UniProt Q5VXU9); assay: as above
[6] = target: human SHOC1-nVenus (human) (UniProt Q5VXU9); assay: split reporter; Bi-FC with Venus fragments VN210 and VC210 fused to the two proteins, transfected into HeLa cells, fluorescence imaging
[7] = target: T1, mouse TEX11-nVenus (mouse) (UniProt Q14AT2); assay: as above
T1 sequence: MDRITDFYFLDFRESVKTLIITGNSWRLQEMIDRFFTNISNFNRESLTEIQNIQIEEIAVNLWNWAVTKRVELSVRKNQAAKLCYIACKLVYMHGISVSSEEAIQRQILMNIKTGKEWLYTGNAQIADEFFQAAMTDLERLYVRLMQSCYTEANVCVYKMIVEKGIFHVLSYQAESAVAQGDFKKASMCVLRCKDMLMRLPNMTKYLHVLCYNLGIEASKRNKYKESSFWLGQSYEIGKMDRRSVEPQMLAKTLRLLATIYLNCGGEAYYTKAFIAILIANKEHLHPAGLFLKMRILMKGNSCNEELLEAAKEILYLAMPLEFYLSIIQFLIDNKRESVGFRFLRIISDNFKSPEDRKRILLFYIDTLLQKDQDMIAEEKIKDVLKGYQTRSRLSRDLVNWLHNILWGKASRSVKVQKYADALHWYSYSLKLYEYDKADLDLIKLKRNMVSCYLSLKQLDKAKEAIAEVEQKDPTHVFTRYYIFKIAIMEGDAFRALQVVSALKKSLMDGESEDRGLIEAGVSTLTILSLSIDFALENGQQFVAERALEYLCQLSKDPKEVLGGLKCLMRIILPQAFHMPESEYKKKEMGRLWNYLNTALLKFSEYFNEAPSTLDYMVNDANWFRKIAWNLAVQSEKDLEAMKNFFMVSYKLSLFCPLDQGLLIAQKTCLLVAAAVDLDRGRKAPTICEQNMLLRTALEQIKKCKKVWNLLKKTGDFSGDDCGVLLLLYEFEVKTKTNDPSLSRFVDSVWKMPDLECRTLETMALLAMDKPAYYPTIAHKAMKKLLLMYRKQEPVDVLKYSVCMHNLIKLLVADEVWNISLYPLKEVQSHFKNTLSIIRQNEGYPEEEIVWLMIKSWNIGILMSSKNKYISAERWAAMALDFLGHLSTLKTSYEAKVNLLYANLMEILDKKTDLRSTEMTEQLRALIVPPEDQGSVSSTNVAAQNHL

[8] = target: mouse SHOC1 ΔF3 (aa626-1154del) (mouse) (UniProt A2ALV5); assay: co-IP; tagged proteins co-expressed in pairs in HEK293T; immunoprecipitated from cell lysates by tag-specific antibodies, Western blot; IP lysis buffer 20 mM HEPES, 150 mM NaCl, 0.5% NP-40, 1 mM DTT, pH 7.3; 4°C (Fig. 1A, B; Supplementary Fig. S2C, D)
[9] = target: mouse SHOC1 ΔF2 (aa313-625del) (mouse) (UniProt A2ALV5); assay: as above
[10] = target: mouse SHOC1 N-terminal 1–625 (mouse) (UniProt A2ALV5); assay: as above
[11] = target: mouse SHOC1 ΔF4 (aa1155-1482del) (mouse) (UniProt A2ALV5); assay: as above

B1: human HA-tagged M1AP (protein, UniProt Q8TC57 1-530)
chain: MHPGRTTGKGPSTHTQIDQQPPRLLIVHIALPSWADICTNLCEALQNFFSLACSLMGPSRMSLFSLYMVQDQHECILPFVQVKGNFARLQTCISELRMLQREGCFRSQGASLRLAVEDGLQQFKQYSRHVTTRAALTYTSLEITILTSQPGKEVVKQLEEGLKDTDLARVRRFQVVEVTKGILEHVDSASPVEDTSNDESSILGTDIDLQTIDNDIVSMEIFFKAWLHNSGTDQEQIHLLLSSQCFSNISRPRDNPMCLKCDLQERLLCPSLLAGTADGSLRMDDPKGDFITLYQMASQSSASHYKLQVIKALKSSGLCESLTYGLPFILRPTSCWQLDWDELETNQQHFHALCHSLLKREWLLLAKGEPPGPGHSQRIPASTFYVIMPSHSLTLLVKAVATRELMLPSTFPLLPEDPHDDSLKNVESMLDSLELEPTYNPLHVQSHLYSHLSSIYAKPQGRLHPHWESRAPRKHPCKTGQLQTNRARATVAPLPMTPVPGRASKMPAASKSSSDAFFLPSEWEKDPSRP
binding [1]: binds
binding [2]: binds
binding [3]: binds
binding [4]: binds
binding [5]: binds

B2: human TEX11-cVenus (protein, UniProt Q8IYF3 1-940)
chain: MISAHCNLRLLCSSDSSASASQVAGTTEVVENLVTNDNSPNIPEAIDRLFSDIANINRESMAEITDIQIEEMAVNLWNWALTIGGGWLVNEEQKIRLHYVACKLLSMCEASFASEQSIQRLIMMNMRIGKEWLDAGNFLIADECFQAAVASLEQLYVKLIQRSSPEADLTMEKITVESDHFRVLSYQAESAVAQGDFQRASMCVLQCKDMLMRLPQMTSSLHHLCYNFGVETQKNNKYEESSFWLSQSYDIGKMDKKSTGPEMLAKVLRLLATNYLDWDDTKYYDKALNAVNLANKEHLSSPGLFLKMKILLKGETSNEELLEAVMEILHLDMPLDFCLNIAKLLMDHERESVGFHFLTIIHERFKSSENIGKVLILHTDMLLQRKEELLAKEKIEEIFLAHQTGRQLTAESMNWLHNILWRQAASSFEVQNYTDALQWYYYSLRFYSTDEMDLDFTKLQRNMACCYLNLQQLDKAKEAVAEAERHDPRNVFTQFYIFKIAVIEGNSERALQAIITLENILTDEESEDNDLVAERGSPTMLLSLAAQFALENGQQIVAEKALEYLAQHSEDQEQVLTAVKCLLRFLLPKIAEMPESEDKKKEMDRLLTCLNRAFVKLSQPFGEEALSLESRANEAQWFRKTAWNLAVQCDKDPVMMREFFILSYKMSQFCPSDQVILIARKTCLLMAVAVDLEQGRKASTAFEQTMFLSRALEEIQTCNDIHNFLKQTGTFSNDSCEKLLLLYEFEVRAKLNDPLLESFLESVWELPHLETKTFETIAIIAMEKPAHYPLIALKALKKALLLYKKEEPIDISQYSKCMHNLVNLSVPDGASNVELCPLEEVWGYFEDALSHISRTKDYPEMEILWLMVKSWNTGVLMFSRSKYASAEKWCGLALRFLNHLTSFKESYETQMNMLYSQLVEALSNNKGPVFHEHGYWSKSD
binding [6]: binds

B3: mouse SPO16-cVenus (protein, UniProt Q3KQP7 1-186)
chain: MAMDERRGKERVQWTTTIIISSSLKSYEIATALENRSHKVRYSDTLESGSIVFSLSGVAFLLMDAKECMTSAEEIFVTKIEKFINIHQNSFLVLFAPLHGPEEWSLMFRIHQRFLGSNLRILPVHNTVNALDLMCTIAKTTSKPHIDSICYRMITTKAYIIEQSPVWRTLQKIKLSSDSVSADSGE
binding [7]: binds

The next lines start with the values.

binding [8]: binds
binding [9]: binds
binding [10]: binds
binding [11]: binds
B4: mouse HA-tagged TEX11 (protein, UniProt Q14AT2 1-947)
chain: T1 sequence

binding [1]: binds
binding [2]: binds
binding [3]: binds
binding [4]: binds
binding [5]: binds
B5: human HA-tagged REDIC1 (protein, UniProt Q86WS4 1-652)
chain: MNWVGGSRSRVLIKQERRKQKEYFEKHRLKSKMKSLGVLSPVKNSAVSLDILNLYMVNQISCKKKIPETVRKPTHVNMNRDIKMPLRKHNLELTMSPHCVPSKLCLDDTETNVNCQRLSSKEDLGPVQSQGMDSYSMLHPQFSKIENCSFTPSSFSVELPSNRHISKLNFTSGIAPTPQKLAYEKKQNDQRSTVNCSDSLLSKLNKSQDVFSPSHKTTRFGTLFERLNSLGNRNLLTKSPAVIMDEDCRSTDEIRQSDYITEKHSIQHIWGKNGKEVSNFLEDVNQSTPNLLSENCDSFVSQNMINVLNIDEQRIKKTFNKCDYDSMGDTCVVTSSDKNHVTDRCIRNIFTVPELTFSNSTLNKTSYPEKCQPNKKYQREYNKNERNDLSTSFENDYYPSSSERKEKFENDYQEKTPQKSIQKYPANSMGNIPSEELHSKQSWDFGLDEILMEEGGIYSLKSKRISTKKISLDSAQSSRSTSYSPRPTDSCFSSSSDLPSEDEDQISQQIEDSNRMTIKTKEKMNNFYVERMAKLSGDRIVKNDDKIHKQNENFYQFSVKNNTDQFPQLQCNSAHILQNKTNDNCVLQAARCDAGIQTESESVMEEKLDVAIQCDLISKCTCRSDVSLCNLERCSGNIKADTTGGQEIHKNN
